Taken from: PubChem BioAssay AID1259331 (Drosophila RNAi Screening Center, 2017)
Screen: 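Genes whose knock-down changes cell survival under toxic zinc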 (primary screen). System: Drosophila S2R+ cells. Knock-down reagent: long dsRNA against Drosophila genes. Duration: 5 days (4 days knock-down, then 1 day zinc). Conditions: zinc chloride at 15 mM final level for 1 day. Measured: 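Total cellular ATP measured by luciferase luminescence as a viability proxy, turned into Z scores from three plate copies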. Direction: mean Z score: higher = more ATP than other wells, better survival under zinc; ATP luminescence: higher = more ATP, more viable cells. Hit rule: 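a reagent is called a hit when its Z score is above 1.5 or below -1.5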. Meaning of the calls: active = hit, ATP up or down; inactive = not a hit.
In all, the deposit lists about 3,100 reagents; this is a part drawn at random. 126 of all reagents (4.1%) count as active. 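Calls are per reagent; zinc was so toxic that few knock-downs lowered ATP further, so most hits raise ATP.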 Raw values are not corrected between plates. A number with no mark means an inactive call. A plus sign joins genes that one reagent is predicted to hit. Not given: the amount of reagent.

Mdr49 [DRSC07466]
- mean Z score: -0.534
- ATP luminescence, replicate 1: 28622
- ATP luminescence, replicate 2: 25382

Mdr49 [DRSC24065]
- mean Z score: -0.185
- ATP luminescence, replicate 1: 51458
- ATP luminescence, replicate 2: 56842

trn [DRSC11407]
- mean Z score: -0.463
- ATP luminescence, replicate 1: 68349
- ATP luminescence, replicate 2: 49092

CG6978 [DRSC18409]
- mean Z score: -0.737
- ATP luminescence, replicate 1: 52861
- ATP luminescence, replicate 2: 54819

CG6978 [DRSC39567]
- mean Z score: -0.24
- ATP luminescence, replicate 1: 58420
- ATP luminescence, replicate 2: 57271

CG17660 [DRSC00513]
- mean Z score: 0.261
- ATP luminescence, replicate 1: 56429
- ATP luminescence, replicate 2: 63599

CG17660 [DRSC39552]
- mean Z score: 0.579
- ATP luminescence, replicate 1: 70922
- ATP luminescence, replicate 2: 70579

Jwa [DRSC02048]
- mean Z score: -0.336
- ATP luminescence, replicate 1: 48646
- ATP luminescence, replicate 2: 54476

Jwa [DRSC26655]
- mean Z score: 0.178
- ATP luminescence, replicate 1: 62158
- ATP luminescence, replicate 2: 59997

CG2901 [DRSC18239]
- mean Z score: -0.314
- ATP luminescence, replicate 1: 61335
- ATP luminescence, replicate 2: 60340

CG2901 [DRSC39506]
- mean Z score: 0.082
- ATP luminescence, replicate 1: 51355
- ATP luminescence, replicate 2: 54579

PIG-M + CG42380 + CG42379 + 1 more [DRSC03884]
- mean Z score: -0.313
- ATP luminescence, replicate 1: 35293
- ATP luminescence, replicate 2: 40896

PIG-M + CG42380 + CG42379 + 1 more [DRSC04580]
- mean Z score: -0.654
- ATP luminescence, replicate 1: 25828
- ATP luminescence, replicate 2: 27353

Ranbp21 [DRSC19447]
- mean Z score: 0.485
- ATP luminescence, replicate 1: 51669
- ATP luminescence, replicate 2: 52186

Ranbp21 [DRSC39764]
- mean Z score: 0.337
- ATP luminescence, replicate 1: 60546
- ATP luminescence, replicate 2: 61421

TM9SF2 [DRSC03197]
- mean Z score: -0.281
- ATP luminescence, replicate 1: 50601
- ATP luminescence, replicate 2: 54013

TM9SF2 [DRSC39485]
- mean Z score: -0.053
- ATP luminescence, replicate 1: 47302
- ATP luminescence, replicate 2: 48835
